From article PMC6073104 come the findings set out here.

The chains behind the UniProt entries cited, without tags or fusion partners.
UniProt P26196: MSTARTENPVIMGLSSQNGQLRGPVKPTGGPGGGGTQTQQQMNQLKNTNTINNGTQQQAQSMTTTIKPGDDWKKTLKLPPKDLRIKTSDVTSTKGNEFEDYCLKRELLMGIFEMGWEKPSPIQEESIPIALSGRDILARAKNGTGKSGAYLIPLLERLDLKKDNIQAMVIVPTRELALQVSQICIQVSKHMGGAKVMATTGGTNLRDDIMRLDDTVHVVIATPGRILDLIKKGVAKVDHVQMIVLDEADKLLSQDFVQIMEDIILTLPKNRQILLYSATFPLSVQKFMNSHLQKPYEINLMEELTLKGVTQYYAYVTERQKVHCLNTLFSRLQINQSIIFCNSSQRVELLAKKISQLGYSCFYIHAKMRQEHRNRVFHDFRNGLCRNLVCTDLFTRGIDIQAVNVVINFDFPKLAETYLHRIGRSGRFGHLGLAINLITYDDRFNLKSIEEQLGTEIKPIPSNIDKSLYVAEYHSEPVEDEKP

In this assay the target is DDX6, endogenous in HeLa cells (human (endogenous in HeLa)) (UniProt P26196). Description: co-IP; reverse approach: DDX6 immunoprecipitated, RIG-I detected (Figure S1).

These are yes or no findings as the source states them, for the method shown. In cells and extracts the contact can be indirect. Some entries that bind do so weakly or less than the wild type.

B1: RIG-I, endogenous in HeLa cells (protein, UniProt O95786 1-925)
chain: MTTEQRRSLQAFQDYIRKTLDPTYILSYMAPWFREEEVQYIQAEKNNKGPMEAATLFLKFLLELQEEGWFRGFLDALDHAGYSGLYEAIESWDFKKIEKLEEYRLLLKRLQPEFKTRIIPTDIISDLSECLINQECEEILQICSTKGMMAGAEKLVECLLRSDKENWPKTLKLALEKERNKFSELWIVEKGIKDVETEDLEDKMETSDIQIFYQEDPECQNLSENSCPPSEVSDTNLYSPFKPRNYQLELALPAMKGKNTIICAPTGCGKTFVSLLICEHHLKKFPQGQKGKVVFFANQIPVYEQQKSVFSKYFERHGYRVTGISGATAENVPVEQIVENNDIIILTPQILVNNLKKGTIPSLSIFTLMIFDECHNTSKQHPYNMIMFNYLDQKLGGSSGPLPQVIGLTASVGVGDAKNTDEALDYICKLCASLDASVIATVKHNLEELEQVVYKPQKFFRKVESRISDKFKYIIAQLMRDTESLAKRICKDLENLSQIQNREFGTQKYEQWIVTVQKACMVFQMPDKDEESRICKALFLYTSHLRKYNDALIISEHARMKDALDYLKDFFSNVRAAGFDEIEQDLTQRFEEKLQELESVSRDPSNENPKLEDLCFILQEEYHLNPETITILFVKTRALVDALKNWIEGNPKLSFLKPGILTGRGKTNQNTGMTLPAQKCILDAFKASGDHNILIATSVADEGIDIAQCNLVILYEYVGNVIKMIQTRGRGRARGSKCFLLTSNAGVIEKEQINMYKEKMMNDSILRLQTWDEAVFREKILHIQTHEKFIRDSQEKPKPVPDKENKKLLCRKCKALACYTADVRVIEECHYTVLGDAFKECFVSRPHPKPKQFSSFEKRAKIFCARQNCSHDWGIHVKYKTFEIPVIKIESFVVEDIATGVQTLYSKWKDFHFEKIPFDPAEMSK
In the case of B1, the binding result was “binds”.
